No constants are given. Whether binding was seen depends on the method and setting. Binding seen in cells or lysates may run through a third protein. A yes stands for co-enrichment or nearness to the bait. Other partners may have been found.
Biological target: T1, Yeast mitochondrial escape 1-like 1 (YME1L) (human (endogenous in HK2)) (UniProt Q96TA2)
T1 sequence: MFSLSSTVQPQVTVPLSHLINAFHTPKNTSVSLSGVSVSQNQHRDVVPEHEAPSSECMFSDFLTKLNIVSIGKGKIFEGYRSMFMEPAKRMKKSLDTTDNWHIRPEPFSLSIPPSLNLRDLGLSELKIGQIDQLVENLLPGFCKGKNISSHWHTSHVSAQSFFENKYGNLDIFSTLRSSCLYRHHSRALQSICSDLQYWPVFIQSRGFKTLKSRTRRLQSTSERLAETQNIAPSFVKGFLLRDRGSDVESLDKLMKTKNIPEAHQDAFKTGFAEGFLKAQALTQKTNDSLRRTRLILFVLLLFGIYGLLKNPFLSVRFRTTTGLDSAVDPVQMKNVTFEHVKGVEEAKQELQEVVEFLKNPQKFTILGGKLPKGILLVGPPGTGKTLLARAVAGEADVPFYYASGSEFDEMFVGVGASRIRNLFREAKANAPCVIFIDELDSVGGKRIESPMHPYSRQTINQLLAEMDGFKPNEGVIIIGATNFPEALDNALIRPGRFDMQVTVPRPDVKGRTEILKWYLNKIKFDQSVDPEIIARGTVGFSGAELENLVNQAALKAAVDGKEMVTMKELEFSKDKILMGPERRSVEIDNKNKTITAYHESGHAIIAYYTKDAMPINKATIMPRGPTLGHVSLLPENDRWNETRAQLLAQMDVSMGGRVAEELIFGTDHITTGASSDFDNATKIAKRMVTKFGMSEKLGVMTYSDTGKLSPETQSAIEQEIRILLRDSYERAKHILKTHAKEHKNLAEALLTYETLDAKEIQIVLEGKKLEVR
Test: affinity purification with mass spectrometry; IP from HK2 cell lysates (NG control and HG groups) with YME1L antibody or IgG as negative control; SDS-PAGE, silver staining, in-gel digestion, LC-MS/MS

Sequences of proteins named here, by UniProt entry; tags and fusion partners are left off.
UniProt Q9BXK5: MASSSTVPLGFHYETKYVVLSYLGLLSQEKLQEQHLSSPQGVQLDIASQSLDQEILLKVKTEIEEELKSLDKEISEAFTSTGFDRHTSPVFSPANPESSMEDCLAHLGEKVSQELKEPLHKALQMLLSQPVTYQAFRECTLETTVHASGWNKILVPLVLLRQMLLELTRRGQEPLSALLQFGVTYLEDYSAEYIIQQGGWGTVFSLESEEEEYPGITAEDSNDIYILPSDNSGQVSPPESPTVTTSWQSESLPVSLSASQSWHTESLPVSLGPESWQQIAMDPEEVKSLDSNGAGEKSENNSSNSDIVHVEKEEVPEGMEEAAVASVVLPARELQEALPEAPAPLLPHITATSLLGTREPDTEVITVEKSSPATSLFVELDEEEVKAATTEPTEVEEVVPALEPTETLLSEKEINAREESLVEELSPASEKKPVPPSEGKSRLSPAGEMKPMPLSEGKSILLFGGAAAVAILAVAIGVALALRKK

binding: binds
Substance: BCL2-like 13 (BCL2L13) (from UniProt Q9BXK5 1-485)
